Data set [1] can be described thus: Content of DNA extracted from feces (NanoDrop method). The format is in vivo, ICR mice. The note with it: mean value of Day 0, Day 14 and Day 28, mean±SD.
The nature of data set [2]: Properties (color) of feces. It counts as in vivo, ICR mice.

As for `CC1=C(/C=C/C(C)=C/C=C/C(C)=C/C=C/C=C(C)/C=C/C=C(C)/C=C/C2=C(C)C(=O)C(O)CC2(C)C)C(C)(C)CC(O)C1=O` (stereo not drawn) [astaxanthin, 3,3′-dihydroxy-β,β-carotene-4,4′-dione], the results for the “DNA content of feces” value in data set [1] (group CA: ordinary diet + 0.02% astaxanthin) and in data set [1] (group HA: high-fat diet + 0.02% astaxanthin) were 102.7 ± 28.5 ng/µL and 66.9 ± 28.4 ng/µL, respectively. In addition, the entries for the “color of the feces” value in data set [2] (group CA: ordinary diet + astaxanthin) and in data set [2] (group HA: high-fat diet + astaxanthin) were “red brown” and “red to orange”, respectively.
